Values from PubChem BioAssay AID504804 (Drosophila RNAi Screening Center, 2011).

Aim: 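dsRNAs that improve Kc cell survival under doxorubicin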 (primary screen)
Cell system: Drosophila Kc cells
Knock-down reagent: long dsRNA against Drosophila genes, 0.5 µg dsRNA per well
Timing: 96 h (48 h knock-down, then 48 h drug)
Conditions: doxorubicin 5 µg/ml for 48 h, added 48 h after dsRNA
Read-out: 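Viability measured as cellular ATP by luminescence after 48 h knock-down then 48 h doxorubicin at 5 µg/ml; unnormalised plate counts for each replicate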
Reading the numbers: raw ATP luminescence: higher = more viable cells, protection from doxorubicin
Call rule: 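z-score of 2 or more over plate mean in both duplicates, retained only when retests and separate dsRNAs confirm the protection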
The screen tested about 19,000 reagents; shown is an unselected part of those with a known target gene and a result. Over the whole deposit, 47 (0.25%) are marked active. 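Signals are raw, not normalised; exact z-scores behind calls not deposited; actives needed confirmation, so some wells reaching 2 SD are inactive.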 Entries without a mark were called inactive.

Tengl4 [DRSC15620]: raw ATP luminescence, replicate 1 = 42800; raw ATP luminescence, replicate 2 = 47607
Bace [DRSC02197]: raw ATP luminescence, replicate 1 = 90837; raw ATP luminescence, replicate 2 = 91547
CG11068 [DRSC19369]: raw ATP luminescence, replicate 1 = 3.32e5; raw ATP luminescence, replicate 2 = 2.96e5
CG6978 [DRSC18409]: raw ATP luminescence, replicate 1 = 63570; raw ATP luminescence, replicate 2 = 59770
CG9500 [DRSC03237]: raw ATP luminescence, replicate 1 = 20123; raw ATP luminescence, replicate 2 = 20007
CG14053 [DRSC17908]: raw ATP luminescence, replicate 1 = 45820; raw ATP luminescence, replicate 2 = 62780

No new results follow: 2 of the entries above.
CG11068 [DRSC19369]: raw ATP luminescence, replicate 1 = 3.32e5; raw ATP luminescence, replicate 2 = 2.96e5
CG6978 [DRSC18409]: raw ATP luminescence, replicate 1 = 63570; raw ATP luminescence, replicate 2 = 59770

The listing continues:
brwl [DRSC01080]: raw ATP luminescence, replicate 1 = 1.45e5; raw ATP luminescence, replicate 2 = 1.75e5
brwl [DRSC02729]: raw ATP luminescence, replicate 1 = 93797; raw ATP luminescence, replicate 2 = 86707
Ntf-2r [DRSC02019]: raw ATP luminescence, replicate 1 = 41087; raw ATP luminescence, replicate 2 = 51850
sob [DRSC00838]: raw ATP luminescence, replicate 1 = 25953; raw ATP luminescence, replicate 2 = 36113
CG6664 [DRSC10690]: raw ATP luminescence, replicate 1 = 20440; raw ATP luminescence, replicate 2 = 16097
CG16888 [DRSC02541]: raw ATP luminescence, replicate 1 = 65040; raw ATP luminescence, replicate 2 = 70377
